Binding data for 3 substances are collected here from PMC12850156.

Chains of the proteins cited; added tags and fusions are not shown.
UniProt Q9UER7: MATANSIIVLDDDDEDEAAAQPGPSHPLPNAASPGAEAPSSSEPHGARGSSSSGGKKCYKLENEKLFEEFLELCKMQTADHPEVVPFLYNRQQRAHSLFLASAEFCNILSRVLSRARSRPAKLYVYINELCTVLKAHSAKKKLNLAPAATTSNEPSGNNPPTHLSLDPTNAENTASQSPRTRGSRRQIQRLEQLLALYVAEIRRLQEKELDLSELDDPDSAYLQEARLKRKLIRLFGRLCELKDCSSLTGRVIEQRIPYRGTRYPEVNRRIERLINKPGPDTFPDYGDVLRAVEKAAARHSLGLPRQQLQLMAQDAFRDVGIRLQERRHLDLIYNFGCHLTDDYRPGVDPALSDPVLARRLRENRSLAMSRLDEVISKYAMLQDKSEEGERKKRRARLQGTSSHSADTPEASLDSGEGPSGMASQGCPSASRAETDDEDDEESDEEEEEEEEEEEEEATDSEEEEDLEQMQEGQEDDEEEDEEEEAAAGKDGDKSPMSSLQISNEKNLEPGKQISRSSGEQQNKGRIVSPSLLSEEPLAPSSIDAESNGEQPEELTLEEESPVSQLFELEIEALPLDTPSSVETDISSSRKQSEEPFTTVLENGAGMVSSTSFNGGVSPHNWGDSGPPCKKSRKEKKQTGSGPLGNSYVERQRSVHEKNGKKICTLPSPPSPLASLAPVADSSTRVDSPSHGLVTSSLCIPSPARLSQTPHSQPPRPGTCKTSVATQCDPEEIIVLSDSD
UniProt Q12905: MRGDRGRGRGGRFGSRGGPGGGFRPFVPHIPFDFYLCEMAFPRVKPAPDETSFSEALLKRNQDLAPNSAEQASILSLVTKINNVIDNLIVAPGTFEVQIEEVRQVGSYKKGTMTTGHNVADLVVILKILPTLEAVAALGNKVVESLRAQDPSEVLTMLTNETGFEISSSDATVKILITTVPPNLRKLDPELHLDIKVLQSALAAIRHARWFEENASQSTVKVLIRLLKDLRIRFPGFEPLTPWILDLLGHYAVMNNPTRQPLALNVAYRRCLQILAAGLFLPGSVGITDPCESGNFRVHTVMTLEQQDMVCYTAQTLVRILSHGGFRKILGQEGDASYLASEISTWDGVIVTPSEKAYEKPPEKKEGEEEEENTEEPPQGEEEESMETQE
UniProt P49792: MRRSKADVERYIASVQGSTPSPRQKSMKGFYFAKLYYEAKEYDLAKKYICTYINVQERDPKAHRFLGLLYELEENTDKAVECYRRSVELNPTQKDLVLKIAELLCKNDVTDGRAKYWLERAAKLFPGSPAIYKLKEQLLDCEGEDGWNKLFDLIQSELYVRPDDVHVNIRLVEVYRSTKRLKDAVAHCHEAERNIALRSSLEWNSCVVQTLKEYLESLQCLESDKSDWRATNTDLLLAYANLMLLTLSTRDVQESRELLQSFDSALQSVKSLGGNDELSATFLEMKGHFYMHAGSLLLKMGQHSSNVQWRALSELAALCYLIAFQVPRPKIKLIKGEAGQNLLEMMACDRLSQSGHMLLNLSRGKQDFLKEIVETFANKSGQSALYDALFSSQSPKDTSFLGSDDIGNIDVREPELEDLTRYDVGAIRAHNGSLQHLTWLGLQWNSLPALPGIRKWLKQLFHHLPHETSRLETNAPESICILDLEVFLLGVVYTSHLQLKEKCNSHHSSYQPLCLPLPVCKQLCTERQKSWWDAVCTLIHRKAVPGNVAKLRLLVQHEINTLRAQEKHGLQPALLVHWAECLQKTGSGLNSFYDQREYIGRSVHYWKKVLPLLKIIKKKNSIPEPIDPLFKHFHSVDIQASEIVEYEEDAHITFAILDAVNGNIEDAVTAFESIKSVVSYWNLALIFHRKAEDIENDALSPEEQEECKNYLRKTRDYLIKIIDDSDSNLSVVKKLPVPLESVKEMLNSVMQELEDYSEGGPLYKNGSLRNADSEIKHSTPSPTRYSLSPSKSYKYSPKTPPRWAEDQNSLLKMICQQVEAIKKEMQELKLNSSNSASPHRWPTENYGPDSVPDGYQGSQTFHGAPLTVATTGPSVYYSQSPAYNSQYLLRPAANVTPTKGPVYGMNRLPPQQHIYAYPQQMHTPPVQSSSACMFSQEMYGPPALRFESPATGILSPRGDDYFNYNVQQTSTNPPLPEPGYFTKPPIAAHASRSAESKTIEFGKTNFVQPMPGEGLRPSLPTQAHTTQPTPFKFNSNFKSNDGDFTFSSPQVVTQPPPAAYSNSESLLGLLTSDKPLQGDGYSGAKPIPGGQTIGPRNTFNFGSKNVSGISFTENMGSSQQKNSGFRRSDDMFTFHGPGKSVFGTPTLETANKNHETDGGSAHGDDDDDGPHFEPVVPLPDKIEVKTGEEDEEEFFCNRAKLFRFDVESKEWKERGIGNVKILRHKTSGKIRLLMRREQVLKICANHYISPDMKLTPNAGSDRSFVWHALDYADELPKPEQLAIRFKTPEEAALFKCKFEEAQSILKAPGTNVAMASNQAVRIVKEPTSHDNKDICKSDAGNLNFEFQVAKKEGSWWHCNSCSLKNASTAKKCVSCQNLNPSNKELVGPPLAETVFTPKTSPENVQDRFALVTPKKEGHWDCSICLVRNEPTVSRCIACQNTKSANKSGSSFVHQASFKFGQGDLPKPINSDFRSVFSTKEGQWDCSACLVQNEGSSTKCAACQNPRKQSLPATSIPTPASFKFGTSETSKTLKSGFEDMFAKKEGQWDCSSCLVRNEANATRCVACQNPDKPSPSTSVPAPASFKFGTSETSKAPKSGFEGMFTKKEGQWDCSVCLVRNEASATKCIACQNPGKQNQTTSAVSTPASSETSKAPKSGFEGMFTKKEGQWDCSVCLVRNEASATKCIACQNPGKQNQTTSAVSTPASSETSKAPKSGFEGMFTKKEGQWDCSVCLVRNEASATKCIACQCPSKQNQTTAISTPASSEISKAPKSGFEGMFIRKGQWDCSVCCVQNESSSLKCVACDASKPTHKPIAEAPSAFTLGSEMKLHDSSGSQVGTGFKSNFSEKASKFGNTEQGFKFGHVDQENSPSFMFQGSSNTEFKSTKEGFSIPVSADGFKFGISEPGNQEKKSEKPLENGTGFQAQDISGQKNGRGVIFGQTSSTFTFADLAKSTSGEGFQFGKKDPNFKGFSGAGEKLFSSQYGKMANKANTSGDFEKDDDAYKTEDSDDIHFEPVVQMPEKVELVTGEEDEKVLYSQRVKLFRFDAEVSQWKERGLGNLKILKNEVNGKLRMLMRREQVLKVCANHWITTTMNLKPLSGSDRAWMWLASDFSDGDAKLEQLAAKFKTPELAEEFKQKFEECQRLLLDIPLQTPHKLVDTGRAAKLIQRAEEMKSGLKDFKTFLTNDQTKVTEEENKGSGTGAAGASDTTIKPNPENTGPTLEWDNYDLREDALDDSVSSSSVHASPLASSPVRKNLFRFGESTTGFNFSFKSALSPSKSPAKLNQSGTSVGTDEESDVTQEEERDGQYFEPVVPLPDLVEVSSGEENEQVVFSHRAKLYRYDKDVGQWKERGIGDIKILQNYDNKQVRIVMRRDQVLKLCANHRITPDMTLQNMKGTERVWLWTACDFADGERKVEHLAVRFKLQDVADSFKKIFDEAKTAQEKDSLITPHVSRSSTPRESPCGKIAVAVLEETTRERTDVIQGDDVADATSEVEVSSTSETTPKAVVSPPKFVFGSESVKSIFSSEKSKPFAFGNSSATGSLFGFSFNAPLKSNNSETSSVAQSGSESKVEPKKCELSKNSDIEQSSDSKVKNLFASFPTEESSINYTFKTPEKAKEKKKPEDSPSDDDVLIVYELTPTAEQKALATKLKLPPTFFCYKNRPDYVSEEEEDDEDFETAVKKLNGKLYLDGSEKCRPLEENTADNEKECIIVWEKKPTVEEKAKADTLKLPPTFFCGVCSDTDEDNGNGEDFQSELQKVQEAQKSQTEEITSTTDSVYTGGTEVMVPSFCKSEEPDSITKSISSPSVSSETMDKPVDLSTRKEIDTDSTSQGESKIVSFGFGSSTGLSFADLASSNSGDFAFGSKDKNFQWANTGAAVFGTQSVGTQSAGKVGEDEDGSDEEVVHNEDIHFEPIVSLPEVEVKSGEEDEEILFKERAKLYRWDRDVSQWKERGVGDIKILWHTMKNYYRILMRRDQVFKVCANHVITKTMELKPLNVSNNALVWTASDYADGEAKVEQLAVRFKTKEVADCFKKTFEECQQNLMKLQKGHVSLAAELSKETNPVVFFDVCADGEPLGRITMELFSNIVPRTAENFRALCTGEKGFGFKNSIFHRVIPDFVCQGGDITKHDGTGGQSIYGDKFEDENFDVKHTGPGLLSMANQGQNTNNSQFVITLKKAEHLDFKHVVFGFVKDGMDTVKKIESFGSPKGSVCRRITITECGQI

The test has as its target T1, Flag-NUSAP1 (human) (UniProt Q9BXS6).
T1 sequence: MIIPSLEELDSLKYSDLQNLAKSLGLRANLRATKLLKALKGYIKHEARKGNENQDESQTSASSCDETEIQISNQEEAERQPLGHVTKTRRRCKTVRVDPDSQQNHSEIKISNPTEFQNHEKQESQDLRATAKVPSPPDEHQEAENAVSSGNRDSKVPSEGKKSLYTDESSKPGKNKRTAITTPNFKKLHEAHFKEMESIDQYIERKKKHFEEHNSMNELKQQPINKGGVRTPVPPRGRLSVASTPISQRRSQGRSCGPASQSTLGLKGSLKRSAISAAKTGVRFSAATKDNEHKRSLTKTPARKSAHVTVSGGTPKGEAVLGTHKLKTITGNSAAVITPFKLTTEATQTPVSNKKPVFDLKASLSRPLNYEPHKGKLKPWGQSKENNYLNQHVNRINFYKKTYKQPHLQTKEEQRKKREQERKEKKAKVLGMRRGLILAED
Put plainly: affinity purification with mass spectrometry; MDA-MB-231 cells stably expressing Flag-NUSAP1, 10 µM MG132 for 6 h, NETN lysis buffer; anti-Flag magnetic beads, 4 °C, 2 h; SDS-PAGE and LC-MS/MS.

No constants are given. Whether binding was seen depends on the method and setting. Binding seen in cells or lysates may run through a third protein. Here binding means that the protein was enriched with, or labelled near, the bait; the list need not be complete. Where a sequence is shown, tags or fusion partners need not be part of it.

As to “DAXX (in TNBC cells) (from UniProt Q9UER7 1-740)”, the binding result is reported as “binds”. Consider ILF2 (from UniProt Q12905 1-390), for which the binding entry is reported as “binds”. Under RanBP2 (from UniProt P49792 1-3224) stands “binds”.
